The text below walks through data of the supplement of paper PMC12024529.

For assay [1], the system named is HEK293 WT BDD-FVIII-Gluc. Description: secreted FVIII-Gluc luciferase Z-score vs DMSO control; higher = more FVIII-Gluc secretion. The following applies: 5 µM; 24 h.
Assay [2] deals with HEK293 p.N1941S BDD-FVIII-Gluc. The description is as above. The settings on record: 5 µM; 24 h.

Where a name gives a salt, the structure may show the parent alone. The list shows a part of the results. Part of the spread comes from offsets between plates or batches.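 Wild-type or misfolding-prone missense mutant B-domain-deleted factor VIII, fused to Gaussia luciferase, is stably expressed in HEK293 lines. Each score is (mean triplicate-well luminescence minus DMSO mean) divided by DMSO standard deviation. Hits score at least 2; lower scores could stem from decreased secretion or poorer cell viability.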

Consider `CC(=O)[C@H]1CC[C@H]2[C@@H]3CCC4=CC(=O)CC[C@]4(C)[C@H]3CC[C@]12C` [Progesterone (Prometrium)], for which the “secreted FVIII-Gluc luciferase Z-score” value is inactive: -2.5 in assay [1] and inactive: -0.169 in assay [2].

As to `NC(=O)c1cccnc1` [Nicotinamide (Niacinamide)], the “secreted FVIII-Gluc luciferase Z-score” value in assay [1] was inactive: -3.01; in assay [2] it was inactive: -0.499.

As to `Cc1nc(-c2ccc(OCC(C)C)c(C#N)c2)sc1C(=O)O` [Febuxostat (Uloric)], the results for the “secreted FVIII-Gluc luciferase Z-score” value in assay [1] and in assay [2] were inactive: -3.02 and inactive: 0.112, respectively.

As to `Nc1ncnc2c1ncn2[C@@H]1O[C@H](CO)[C@@H](O)[C@H]1O` [Adenosine (Adenocard)], the results for the “secreted FVIII-Gluc luciferase Z-score” value in assay [1] and in assay [2] were inactive: -2.16 and inactive: -0.417, respectively.

For `CC(=O)NC[C@H]1CN(c2ccc(N3CCOCC3)c(F)c2)C(=O)O1` [Linezolid (Zyvox)], the “secreted FVIII-Gluc luciferase Z-score” value in assay [1] was inactive: -4.65; in assay [2], inactive: 0.0669.

Regarding `C[C@@H](O[C@H]1OCCN(Cc2n[nH]c(=O)[nH]2)[C@H]1c1ccc(F)cc1)c1cc(C(F)(F)F)cc(C(F)(F)F)c1` [Aprepitant (MK-0869)], the “secreted FVIII-Gluc luciferase Z-score” value was inactive: 1.02 in assay [1] and inactive: -1.01 in assay [2].

For the compound `COCCCC/C(=N\OCCN)c1ccc(C(F)(F)F)cc1` [Fluvoxamine maleate], the “secreted FVIII-Gluc luciferase Z-score” value in assay [1] is inactive: -4.25; in assay [2], inactive: -0.00524.

Take `CN1CC2c3ccccc3Oc3ccc(Cl)cc3C2C1` (configuration not stated) [Asenapine]: the entries for the “secreted FVIII-Gluc luciferase Z-score” value in assay [1] and in assay [2] were inactive: -1.09 and inactive: -7.36, respectively.

Consider `Cn1c(=O)c2c(ncn2CC(O)CO)n(C)c1=O` (configuration not stated) [Dyphylline (Dilor)], for which the “secreted FVIII-Gluc luciferase Z-score” value in assay [1] is inactive: -2.84; in assay [2] it was inactive: 0.0187.

As for `Clc1ccc(C(Cn2ccnc2)OCc2ccc(Sc3ccccc3)cc2)c(Cl)c1` (configuration not stated) [Fenticonazole nitrate], the “secreted FVIII-Gluc luciferase Z-score” value was inactive: -1.97 in assay [1] and inactive: -1.33 in assay [2].

Turning to `Cc1cnc(C(=O)NCCc2ccc(S(=O)(=O)NC(=O)NC3CCCCC3)cc2)cn1` [Glipizide (Glucotrol)], the entries for the “secreted FVIII-Gluc luciferase Z-score” value in assay [1] and in assay [2] were inactive: -0.453 and inactive: -0.684, respectively.

On to `Nc1nc2n[nH]nc2c(=O)[nH]1` [Azaguanine-8], for which the “secreted FVIII-Gluc luciferase Z-score” value in assay [1] was inactive: 0.459; in assay [2] it was inactive: 0.574.

For the compound `CC(C)NCC(O)COc1ccc(CCOCC2CC2)cc1` (configuration not stated) [Betaxolol hydrochloride (Betoptic)], the “secreted FVIII-Gluc luciferase Z-score” value in assay [1] is inactive: -2.4; in assay [2], inactive: -1.53.

In the case of `COc1ccc2c(c1)c(CC(=O)O)c(C)n2C(=O)c1ccc(Cl)cc1` [Indomethacin (Indocid, Indocin)], the “secreted FVIII-Gluc luciferase Z-score” value was inactive: 1.86 in assay [1] and inactive: -2.13 in assay [2].

With `Cc1c(NC(=O)c2cccnc2)c(=O)n(-c2ccccc2)n1C` [Nifenazone], the figures for the “secreted FVIII-Gluc luciferase Z-score” value in assay [1] and in assay [2] were inactive: -1.25 and inactive: 1.38, respectively.

Turning to `Cc1ccnc(NS(=O)(=O)c2ccc(N)cc2)n1` [Sulfamerazine], the “secreted FVIII-Gluc luciferase Z-score” value in assay [1] is inactive: 0.882; in assay [2] it was inactive: -0.389.

For the compound `CCCCOc1cc(C(=O)OCCN(CC)CC)ccc1N` [Oxybuprocaine HCl], the “secreted FVIII-Gluc luciferase Z-score” value in assay [1] was inactive: -1.15; in assay [2], inactive: 0.62.

For `Cc1c(O)cccc1C(=O)N[C@@H](CSc1ccccc1)[C@H](O)CN1C[C@H]2CCCC[C@H]2C[C@H]1C(=O)NC(C)(C)C` [Nelfinavir Mesylate], the “secreted FVIII-Gluc luciferase Z-score” value in assay [1] is inactive: -2.23; in assay [2] it was inactive: -0.254.

Take `CCCCCCOC(=O)NC(=N)c1ccc(NCc2nc3cc(C(=O)N(CCC(=O)OCC)c4ccccn4)ccc3n2C)cc1` [BIBR-1048 (Dabigatran)]: the “secreted FVIII-Gluc luciferase Z-score” value is inactive: -0.488 in assay [1] and inactive: -1.13 in assay [2].

On to `Cc1ccc(C(=O)c2cc(O)c(O)c([N+](=O)[O-])c2)cc1` [Tolcapone], for which the “secreted FVIII-Gluc luciferase Z-score” value in assay [1] is inactive: -1.18; in assay [2] it was inactive: -1.13.

Turning to `CN1C(C(=O)Nc2ccccn2)=C(O)c2sccc2S1(=O)=O` [Tenoxicam (Mobiflex)], the “secreted FVIII-Gluc luciferase Z-score” value in assay [1] was inactive: -0.675; in assay [2], inactive: -1.1.

Turning to `Nc1nc(Cl)nc2c1ncn2[C@@H]1O[C@H](CO)[C@@H](O)[C@@H]1F` [Clofarabine], the “secreted FVIII-Gluc luciferase Z-score” value in assay [1] was inactive: -4.31; in assay [2], inactive: -12.4.

As for `N[C@@H](Cc1cc(I)c(Oc2cc(I)c(O)c(I)c2)c(I)c1)C(=O)O` [L-Thyroxine], the results for the “secreted FVIII-Gluc luciferase Z-score” value in assay [1] and in assay [2] were inactive: 0.928 and inactive: 0.435, respectively.

Consider `CC(=O)Nc1ncc([N+](=O)[O-])s1` [Nithiamide], for which the “secreted FVIII-Gluc luciferase Z-score” value in assay [1] is active: 2.04; in assay [2], inactive: -0.787.

Consider `CCOC(=O)CC(=O)N1CCSC1COc1ccccc1OC` (configuration not stated) [Moguisteine], for which the entries for the “secreted FVIII-Gluc luciferase Z-score” value in assay [1] and in assay [2] were inactive: 0.561 and inactive: 0.00787, respectively.

For the compound `Cn1ccnc1S` [Methimazole (Tapazole, Northyx)], the “secreted FVIII-Gluc luciferase Z-score” value in assay [1] is inactive: -3.41; in assay [2], inactive: 0.988.
